Experimental data: PubChem BioAssay AID256 (DTP/NCI, 2004)
The list is a part of this screen's results and no random one: it gathers tests that were run many times, whatever their T/C, doses with no T/C, and many T/C values between a quarter and a half above the control. Other doses and runs of a compound stand elsewhere. T/C is the treated group as % of the vehicle group. Some entries give survivors of the animals treated and no T/C: the source files T/C as zero there, which appears to mark a toxic dose or a test without result, not a measured value. Some doses without a T/C left all or most animals alive at the check, yet need not have been tolerated: survival well below the control is almost never listed, so the zero probably covers shortened survival too. Counts of survivors are from the toxicity check (mostly the fifth day) where no day follows; animals may have died later. Schedules are NCI's codes, read here as Q, the interval in days (D) or hours (H), X, the number of doses. For survival time, the PubChem record calls one and a half times the control and up active, and a quarter to a half above the control has no call in these data; cut-offs in other NCI protocols can differ. Some T/C values carry the count of animals alive at the toxicity check (mostly the fifth day); where none is given, no animal had died by that day. Some entries were tested several times; the results are listed from low to high. Signs of the kind (2×) count equal records among those shown.

Test system: CD2F1 mice, L1210 leukemia ip, survival T/C
Test: NCI In Vivo Anticancer Drug Screen. Data for tumor model L1210 Leukemia (intraperitoneal) in CD2F1 (CDF1) mice
Conditions: higher T/C = longer survival
Outline: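 Activity against a transplanted murine tumor was judged by comparing the compound group with a vehicle group. The outcome in the treated animals was divided by that in the controls.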

[1] = T/C endpoint: mean survival time, dose: 200.0 mg/kg/injection, schedule: Q01DX001 (ip), vehicle: saline
[2] = T/C endpoint: mean survival time, dose: 400.0 mg/kg/injection, schedule: Q01DX001 (ip), vehicle: saline
[3] = T/C endpoint: mean survival time, dose: 400.0 mg/kg/injection, schedule: Q01DX009 (ip), vehicle: saline with Tween-80
[4] = T/C endpoint: mean survival time, dose: 300.0 mg/kg/injection, schedule: Q01DX001 (ip), vehicle: saline

O=C1CSC(=S)N1/N=C/c1ccc(Cl)s1
survivor count (T/C endpoint: mean survival time, dose: 150.0 mg/kg/injection, schedule: Q01DX001 (ip), vehicle: other): 3 of 6 | survivor count (T/C endpoint: mean survival time, dose: 300.0 mg/kg/injection, schedule: Q01DX001 (ip), vehicle: other): 0 of 6

CC1CN1CCCNC(=O)C(=O)NCCCN1CC1C (centres undefined)
survivor count [1]: 1 of 6 | survivor count [2]: 0 of 6

CN(CCN1CCCC1)C(=O)C(O)(c1ccccc1)c1ccccc1
survivor count (T/C endpoint: mean survival time, dose: 400.0 mg/kg/injection, schedule: Q04DX003 (ip), vehicle: saline): 0 of 3

C=C1C(=O)OC2C1C(OC(=O)/C(=C/C)COC(C)=O)CC1(CO1)C1C(OC(=O)/C(=C/C)CO)C=C(C)C21 (centres undefined)
survivor count (T/C endpoint: mean survival time, dose: 200.0 mg/kg/injection, schedule: Q01DX001 (ip), vehicle: saline with Tween-80): 6 of 6

CC[n+]1cccc2ccccc21
survivor count (T/C endpoint: mean survival time, dose: 50.0 mg/kg/injection, schedule: Q04DX003 (ip), vehicle: saline): 3 of 6 | survivor count (T/C endpoint: mean survival time, dose: 75.0 mg/kg/injection, schedule: Q01DX009 (ip), vehicle: saline): 2 of 6 | survivor count (T/C endpoint: mean survival time, dose: 100.0 mg/kg/injection, schedule: Q04DX003 (ip), vehicle: saline): 0 of 6

CCCCCCCCC(=O)N(C)OC
survivor count (T/C endpoint: mean survival time, dose: 200.0 mg/kg/injection, schedule: Q01DX009 (ip), vehicle: saline with Tween-80): 2 of 6

C(=Nc1ccccc1)c1ccc(C=Nc2ccccc2)cc1
survivor count [3]: 6 of 6

NC(=S)N=Nc1c(O)cc(O)c2[nH]c(=O)ccc12
survivor count [1]: 3 of 6 | survivor count [2]: 0 of 6

O=C(C[n+]1cccc(C(=O)c2ccccc2)c1)c1ccccc1
survivor count (T/C endpoint: mean survival time, dose: 150.0 mg/kg/injection, schedule: Q04DX003 (ip), vehicle: saline): 2 of 6 | survivor count [4]: 0 of 6

CN(C)N=C1CCCCC1
survivor count [4]: 1 of 6

C(=NC1CCCCC1)c1c[nH]c2ccccc12
survivor count [3]: 3 of 6

c1cc(OCC2CO2)ccc1OCC1CO1 (centres undefined)
survivor count (T/C endpoint: mean survival time, dose: 200.0 mg/kg/injection, schedule: Q01DX009 (ip), vehicle: Klucel (hydroxypropylcellulose) (HPC)): 6 of 6 | survivor count (T/C endpoint: mean survival time, dose: 400.0 mg/kg/injection, schedule: Q01DX009 (ip), vehicle: Klucel (hydroxypropylcellulose) (HPC)): 1 of 6

CC1CCC(NC(=O)N(CCCl)N=O)CC1 (centres undefined)
T/C (T/C endpoint: mean survival time, dose: 5.0 mg/kg/injection, schedule: Q01DX001 (sc), vehicle: saline): 96, 97, 103, 104 (2×), 110, 114 % of control | T/C (T/C endpoint: mean survival time, dose: 6.25 mg/kg/injection, schedule: Q01DX001 (ip), vehicle: distilled water + Tween-80): 127 % of control | T/C (T/C endpoint: mean survival time, dose: 6.25 mg/kg/injection, schedule: Q01DX001 (ip), vehicle: other, evaluated on day 30): 108, 113, 115, 118, 125, 127 (2×), 128, 130, 131 (3×), 135 (2×), 145, 158, 165 % of control | T/C (T/C endpoint: mean survival time, dose: 6.25 mg/kg/injection, schedule: Q01DX001 (ip), vehicle: other, evaluated on day 35): 125 % of control | T/C (T/C endpoint: mean survival time, dose: 6.25 mg/kg/injection, schedule: Q01DX001 (ip), vehicle: other, evaluated on day 40): 128 and 189 % of control | T/C (T/C endpoint: mean survival time, dose: 6.25 mg/kg/injection, schedule: Q01DX001 (ip), vehicle: other, evaluated on day 45): 137 % of control | T/C (T/C endpoint: mean survival time, dose: 6.25 mg/kg/injection, schedule: Q01DX001 (ip), vehicle: saline, evaluated on day 30): 98 and 106 % of control | T/C (T/C endpoint: mean survival time, dose: 6.25 mg/kg/injection, schedule: Q01DX001 (ip), vehicle: saline, evaluated on day 60): 125 and 133 % of control | T/C (T/C endpoint: mean survival time, dose: 8.0 mg/kg/injection, schedule: Q01DX001 (ip), vehicle: other): 134 % of control | T/C (T/C endpoint: mean survival time, dose: 8.0 mg/kg/injection, schedule: Q01DX001 (ip), vehicle: saline + alcohol): 147 % of control | T/C (T/C endpoint: mean survival time, dose: 10.0 mg/kg/injection, schedule: Q01DX001 (sc), vehicle: saline): 94, 107, 118, 126, 133, 140, 142 % of control | T/C (T/C endpoint: mean survival time, dose: 12.5 mg/kg/injection, schedule: Q01DX001 (ip), vehicle: other, evaluated on day 30): 144, 149, 150, 153, 157, 166, 168, 172, 174, 177, 187, 232, 264, 265, 310, 314, 319 % of control | T/C (T/C endpoint: mean survival time, dose: 12.5 mg/kg/injection, schedule: Q01DX001 (ip), vehicle: other, evaluated on day 35): 219 % of control | T/C (T/C endpoint: mean survival time, dose: 12.5 mg/kg/injection, schedule: Q01DX001 (ip), vehicle: other, evaluated on day 40): 260 and 327 % of control | T/C (T/C endpoint: mean survival time, dose: 12.5 mg/kg/injection, schedule: Q01DX001 (ip), vehicle: other, evaluated on day 45): 176 % of control | T/C (T/C endpoint: mean survival time, dose: 12.5 mg/kg/injection, schedule: Q01DX001 (ip), vehicle: saline with Tween-80): 134 % of control | T/C (T/C endpoint: mean survival time, dose: 12.5 mg/kg/injection, schedule: Q01DX001 (ip), vehicle: saline, evaluated on day 30): 100 and 104 % of control | T/C (T/C endpoint: mean survival time, dose: 12.5 mg/kg/injection, schedule: Q01DX001 (ip), vehicle: saline, evaluated on day 60): 183 and 275 % of control | T/C (T/C endpoint: mean survival time, dose: 20.0 mg/kg/injection, schedule: Q01DX001 (sc), vehicle: saline): 93, 141, 171, 179, 263, 289, 398 % of control | T/C (T/C endpoint: mean survival time, dose: 25.0 mg/kg/injection, schedule: Q01DX001 (ip), vehicle: other, evaluated on day 30): 258, 265, 277, 292, 313, 314, 329 (2×), 332, 333 (2×), 337, 340, 348, 357, 375 % of control (2×) | T/C (T/C endpoint: mean survival time, dose: 25.0 mg/kg/injection, schedule: Q01DX001 (ip), vehicle: other, evaluated on day 35): 315 % of control | T/C (T/C endpoint: mean survival time, dose: 25.0 mg/kg/injection, schedule: Q01DX001 (ip), vehicle: other, evaluated on day 40): 306 and 454 % of control | T/C (T/C endpoint: mean survival time, dose: 25.0 mg/kg/injection, schedule: Q01DX001 (ip), vehicle: other, evaluated on day 45): 511 % of control | T/C (T/C endpoint: mean survival time, dose: 25.0 mg/kg/injection, schedule: Q01DX001 (ip), vehicle: saline, evaluated on day 30): 101 and 106 % of control | T/C (T/C endpoint: mean survival time, dose: 25.0 mg/kg/injection, schedule: Q01DX001 (ip), vehicle: saline, evaluated on day 60): 683 and 740 % of control | T/C (T/C endpoint: mean survival time, dose: 30.0 mg/kg/injection, schedule: Q01DX001 (sc), vehicle: saline): 95, 211, 270, 511, 514, 529, 663 % of control | T/C (T/C endpoint: mean survival time, dose: 40.0 mg/kg/injection, schedule: Q01DX001 (sc), vehicle: saline): 88, 101, 182, 527, 569, 585, 663 % of control | survivor count (T/C endpoint: mean survival time, dose: 50.0 mg/kg/injection, schedule: Q01DX001 (ip), vehicle: distilled water + Tween-80): 6 of 6 | T/C (T/C endpoint: mean survival time, dose: 50.0 mg/kg/injection, schedule: Q01DX001 (ip), vehicle: other, evaluated on day 30): 102, 143, 184, 193, 203, 214, 224, 227, 238, 284, 295, 309, 315, 331, 333, 348 [5 of 6 alive], 375 % of control | T/C (T/C endpoint: mean survival time, dose: 50.0 mg/kg/injection, schedule: Q01DX001 (ip), vehicle: other, evaluated on day 35): 219 % of control | T/C (T/C endpoint: mean survival time, dose: 50.0 mg/kg/injection, schedule: Q01DX001 (ip), vehicle: other, evaluated on day 40): 302 and 314 % of control | T/C (T/C endpoint: mean survival time, dose: 50.0 mg/kg/injection, schedule: Q01DX001 (ip), vehicle: other, evaluated on day 45): 234 % of control | T/C (T/C endpoint: mean survival time, dose: 50.0 mg/kg/injection, schedule: Q01DX001 (ip), vehicle: saline, evaluated on day 30): 108 and 114 % of control | T/C (T/C endpoint: mean survival time, dose: 50.0 mg/kg/injection, schedule: Q01DX001 (ip), vehicle: saline, evaluated on day 60): 680 and 740 % of control | T/C (T/C endpoint: mean survival time, dose: 64.0 mg/kg/injection, schedule: Q01DX001 (ip), vehicle: saline + alcohol): 128 % of control [5 of 6 alive] | survivor count (T/C endpoint: mean survival time, dose: 100.0 mg/kg/injection, schedule: Q01DX001 (ip), vehicle: other): 4 of 6 | survivor count (T/C endpoint: mean survival time, dose: 128.0 mg/kg/injection, schedule: Q01DX001 (ip), vehicle: other): 5 of 6 | T/C (T/C endpoint: median survival time, dose: 5.0 mg/kg/injection, schedule: Q01DX001 (ip), vehicle: other): 111, 116, 120, 136 % of control | T/C (T/C endpoint: median survival time, dose: 6.25 mg/kg/injection, schedule: Q01DX001 (ip), vehicle: other): 125 % of control | T/C (T/C endpoint: median survival time, dose: 8.6 mg/kg/injection, schedule: Q04DX002 (ip), vehicle: saline + alcohol): 137 % of control | T/C (T/C endpoint: median survival time, dose: 10.0 mg/kg/injection, schedule: Q01DX001 (ip), vehicle: other): 144, 158, 161, 214 % of control | T/C (T/C endpoint: median survival time, dose: 12.5 mg/kg/injection, schedule: Q01DX001 (ip), vehicle: saline): 137 % of control | T/C (T/C endpoint: median survival time, dose: 20.0 mg/kg/injection, schedule: Q01DX001 (ip), vehicle: other): 198, 226, 268, 273 % of control | T/C (T/C endpoint: median survival time, dose: 24.0 mg/kg/injection, schedule: Q01DX001 (ip), vehicle: saline with Tween-80): 135 % of control | T/C (T/C endpoint: median survival time, dose: 40.0 mg/kg/injection, schedule: Q01DX001 (ip), vehicle: other): 315, 322, 397, 713 % of control
